Measured values reported in paper PMC10762078, “Role of UPF1-LIN28A interaction during early differentiation of pluripotent stem cells” (Nature Communications, 2024).
No constants are given. Whether binding was seen depends on the method and setting. Binding seen in cells or lysates may run through a third protein. Binding calls can cover weak binding; strength is not graded here. Sequences can lack the tags named with a protein.

By UniProt entry, the sequences of proteins in these tests, tags left out. Where a name states a change or a piece, a line headed by the entry shows the natural chain unless it says otherwise.
UniProt Q92900: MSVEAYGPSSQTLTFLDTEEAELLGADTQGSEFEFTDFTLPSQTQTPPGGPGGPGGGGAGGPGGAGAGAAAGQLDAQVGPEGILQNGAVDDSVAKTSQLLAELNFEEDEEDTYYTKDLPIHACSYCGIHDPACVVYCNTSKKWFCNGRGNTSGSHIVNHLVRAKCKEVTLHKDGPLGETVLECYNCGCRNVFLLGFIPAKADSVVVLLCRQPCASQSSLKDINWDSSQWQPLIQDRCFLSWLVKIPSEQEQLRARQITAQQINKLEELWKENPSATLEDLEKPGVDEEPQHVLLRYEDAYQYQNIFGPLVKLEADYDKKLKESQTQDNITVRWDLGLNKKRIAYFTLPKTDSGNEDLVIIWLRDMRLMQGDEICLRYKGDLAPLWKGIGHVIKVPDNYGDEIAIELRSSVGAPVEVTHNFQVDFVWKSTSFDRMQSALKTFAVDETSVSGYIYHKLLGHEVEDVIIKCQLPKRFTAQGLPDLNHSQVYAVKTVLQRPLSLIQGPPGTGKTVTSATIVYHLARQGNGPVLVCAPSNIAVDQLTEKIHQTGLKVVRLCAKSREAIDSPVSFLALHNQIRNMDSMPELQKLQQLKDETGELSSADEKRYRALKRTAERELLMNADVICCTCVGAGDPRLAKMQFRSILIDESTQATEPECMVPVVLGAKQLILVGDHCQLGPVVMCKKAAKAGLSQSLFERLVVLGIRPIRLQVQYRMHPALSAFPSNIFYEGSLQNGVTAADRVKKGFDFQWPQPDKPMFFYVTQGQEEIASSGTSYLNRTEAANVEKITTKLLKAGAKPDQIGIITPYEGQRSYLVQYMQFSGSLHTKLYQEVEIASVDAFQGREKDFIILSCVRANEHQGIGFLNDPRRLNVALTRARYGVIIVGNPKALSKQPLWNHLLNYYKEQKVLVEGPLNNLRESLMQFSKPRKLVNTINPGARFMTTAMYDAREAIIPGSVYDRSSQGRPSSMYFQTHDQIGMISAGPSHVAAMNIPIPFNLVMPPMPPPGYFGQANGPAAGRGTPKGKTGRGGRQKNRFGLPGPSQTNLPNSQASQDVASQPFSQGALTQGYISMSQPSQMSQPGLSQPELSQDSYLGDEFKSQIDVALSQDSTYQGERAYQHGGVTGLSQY

Target: HA-UPF1 (UniProt Q92900)
Assay: co-IP; co-IP of LIN28A with HA-UPF1, with or without GST-MYC-UPF1 as competitor (Supplementary Fig. 1f)

- binding: binds
B1: FLAG-LIN28A (protein, UniProt Q9H9Z2 1-209)
chain: MGSVSNQQFAGGCAKAAEEAPEEAPEDAARAADEPQLLHGAGICKWFNVRMGFGFLSMTARAGVALDPPVDVFVHQSKLHMEGFRSLKEGEAVEFTFKKSAKGLESIRVTGPGGVFCIGSERRPKGKSMQKRRSKGDRCYNCGGLDHHAKECKLPPQPKKCHFCQSISHMVASCPLKAQQGPSAQGKPTYFREEEEEIHSPTLLPEAQN
